Some of these results come from one statement about several compounds together. Some ranges recur; such a range may be that of the whole group of compounds.
What follows are compounds tested on drug-resistant breast cancer cells MDA-435/LCC6-MDR (assay: Cytostatic activity of paclitaxel alone or in combination with the compounds (SRB cell growth inhibition)). Settings: compared with paclitaxel alone, MDA-435/LCC6-MDR cells.
Format: cell-based
Experimental: The compounds were then evaluated in combination with paclitaxel for their cytostatic activity against the drug-resistant breast cancer cells MDA-435/LCC6-MDR.
In the experiments, the compounds were used in combination with paclitaxel, the paclitaxel being at a concentration of 0.3 μM.
Cancer Inst, 82, 1107, 1990.

Compound	fold decrease of the IC50 of paclitaxel when used in combination
COc1cc(C=CC(=O)c2c(OCC=C(C)C)ccc3c(=O)c(C)c(-c4ccccc4)oc23)cc(OC)c1OC [VIB 173, 1-[3-Methyl-7-(3-Methylbut-2-Enyloxy)Flavon-8-yl]-3-(3,4,5-Tri-Methoxy)Phenyl-Propen-1-one]	5-20 fold
COc1cc(C=CC(=O)c2c(OCC=C(C)C)ccc3c(=O)c4ccccc4oc23)cc(OC)c1OC [VIB 178, 1-[3-(3-Methylbut-2-Enyloxy)Xanthen-9-one-4-yl]-3-(3,4,5-Tri-Methoxyphenyl)-Propen-1-one]	5-20 fold
1-[3-Methyl-7-(Prop-2-ynyloxy)flavon-8-yl]-Phenyl-Propen-1-one [VIB 167]	5-20 fold

Reference: patent publication US6620842B2, “Chalcones” (Indena SpA, priority 1999, dated 2003)
